Values of other authors as cited in patent publication US20230284994A1, “PET-CT IMAGING METHODS, CONTRAST AGENTS AND PHARMACEUTICAL COMPOSITIONS FOR USE IN SAID IMAGING METHODS” (ADIPOSS SÁRL, priority 2020, published 2023).

Tested on: sites of malignancy
Conditions: 18FDG PET, benign diseases; cited from earlier work

SMILES: O=C[C@H]([18F])[C@@H](O)[C@H](O)[C@H](O)CO [^18FDG, 2-[fluorine-18]fluoro-2-deoxy-D-glucose]
- false positive rate: 13%
